# The whole screen tested about 1,800 compounds, of which fewer than 10 were called active.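 Rule for the calls: active = inhibition of granule release above a set limit; inactive = the rest.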 The list shows a part of the results.
# Experiment: inhibitors of lytic granule exocytosis, flow cytometry, TALL-104 cells, validation set (AID 651664)
# Details: TALL-104 LAMP-1 externalization, at 15.2 µM, stronger effect = higher value, stimulated with thapsigargin and PMA
row,SMILES,inhibition
1,CC1(C)Cc2c(sc3ncn4nc(-c5ccco5)nc4c23)CO1,inactive: -1.3%
2,COC(=O)CCCCC1SCC(NC(=O)OC)C1NC(=O)OC (stereo not given),inactive: 3%
3,CCCOc1cccc(C(=O)N(Cc2ccco2)C2CCS(=O)(=O)C2)c1 (stereo not given),inactive: 1.4%
4,Cc1ccc2nsnc2c1NC(=O)c1ccc(-c2cc(Cl)ccc2Cl)o1,inactive: -2.2%
5,COc1ccc(N(C(=O)c2ccc(Cl)cc2)C2=CC3CCC(C2)N3C)cc1 (stereo not given),inactive: 0.4%
6,COc1ccc(CCC(=O)Nc2nc3ccccc3[nH]2)cc1OC,inactive: -1.5%
7,CC1CCCCC1NC(=O)C(=O)NCC1CCCO1 (stereo not given),inactive: 1.7%
8,Cc1cc2ccccc2nc1SCC(=O)N1c2ccccc2CC1C (stereo not given),inactive: -0.9%
9,O=C1c2ccccc2NC(c2ccc(Cl)cc2Cl)N1O (stereo not given),inactive: -2.2%
10,O=c1cc(N2CCc3ccccc3C2)[nH]c(=O)n1C1CCCCC1,inactive: 8.4%
11,COc1ccc(Oc2nccc(-c3ccccc3)c2C#N)cc1,inactive: 0.4%
12,COc1ccc2c(c1)-c1nc(NC(=O)c3cccs3)sc1CC2,inactive: -4.8%
13,CCN(CC)C(=O)C(=O)N/N=C/c1cccc(Br)c1,inactive: -5.5%
14,CCNc1nc(NCC)nc(OCCOC(=O)COc2ccc(Cl)cc2Cl)n1,inactive: -2.4%
15,O=C(C[n+]1cc2ccccc2c2ccccc21)c1ccccc1,inactive: 0.7%
16,OC(CN1CCN(c2ccccc2)CC1)c1c[nH]c2ccccc12 (stereo not given),inactive: -2.6%
17,Cc1cc2c(c(N3CCOCC3)n1)C(=O)OC2,inactive: 1.8%
18,O=C(CSc1nc2ccccc2[nH]1)Nc1ccc2c(c1)OCCO2,inactive: 0.8%
19,Cc1ccc(CN2C(=O)CCC2C(=O)NC(C)C)cc1 (stereo not given),inactive: 2.8%
20,CCOc1cc(CNCCO)cc(Br)c1OCc1ccc(Cl)cc1Cl,inactive: -1.4%
21,O=C(NCc1ccc(F)cc1)c1ccc(CS(=O)(=O)Cc2ccccc2F)o1,inactive: -3.1%
22,CCOC(=O)CSc1nnc(-c2ccccc2)o1,inactive: -0.2%
23,COc1ccc(Cc2c(N)nc(N)nc2N)cc1,inactive: 3.1%
24,CS(=O)(=O)C1=C(O)C(=O)N(c2ccccc2)C1c1ccccc1 (stereo not given),inactive: -2.2%
25,COc1ccccc1-c1nc(C(N)=O)c2[nH]c(=O)n(-c3cccc(C)c3)c2n1,inactive: -0.5%

row,SMILES,inhibition
1,O=C(NC1CCC(C(=O)O)CC1)OCc1ccccc1 (stereo not given),inactive: 43.7%
2,CCOc1ccc(NS(=O)(=O)c2ccc(SC)cc2)cc1,inactive: -1.1%
3,Cn1ccnc1C(O)(c1nnc(-c2ccccc2)o1)C(F)(F)F (stereo not given),inactive: 0.4%
4,Cc1cc(C(=O)CSc2nc3ccccc3o2)c(C)n1CC1CCCO1 (stereo not given),inactive: -0.3%
5,O=C(c1ccc(-c2ccccc2)cc1)N1CCN(C(=O)c2ccco2)CC1,inactive: 0.7%
6,O=C(Nc1ccncc1)c1cc(F)cc(F)c1,inactive: -2.6%
7,CCCSc1nnc(NC(=O)Nc2ccc(F)cc2)s1,inactive: -0.5%
8,COC(=O)CCC(=O)N1CCOCCOCCN(C(=O)CCC(=O)OC)CCOCCOCC1,inactive: 19.7%
9,O=C(N=Nc1c(O)n(C2OC(=O)c3ccccc32)c2ccccc12)c1ccc(O)cc1 (stereo not given),inactive: -3.3%
10,CC(C)=CC(=O)Nc1nnc(C(C)C)s1,inactive: -2%
11,O=C(c1cc(=O)[nH]c2ccccc12)N1CCN(S(=O)(=O)c2ccc3ccccc3c2)CC1,inactive: -2.2%
12,CCCSc1nsc(SCCC)c1C#N,inactive: -0.6%
13,O=c1[nH]c2ccc(Cl)cc2c(-c2ccccc2)c1SC(=S)N1CCCCC1,inactive: -1.2%
14,CCNC1=C(Cl)C(=O)c2ccccc2C1=O,inactive: 0.7%
15,CC1(C(=O)O)CC(C)(C(=O)O)CC(C)(C(=O)O)C1 (stereo not given),inactive: 4.6%
16,Cc1cc(NC(=O)COc2ccc(Cl)cc2Cl)n(-c2ccccc2)n1,inactive: 0.8%
17,CCC(C)(C)NC(=O)C(c1ccco1)N(C(=O)Cn1nnc2ccccc21)c1ccc2c(c1)OCO2 (stereo not given),inactive: -0.1%
18,CCOc1ccccc1N(CC(=O)NC1CCCCC1)C(=O)CCCC(=O)Nc1ccccn1,inactive: 3.5%
19,CCN(CC)S(=O)(=O)c1cc(-c2nn(C)c(=O)c3ccccc23)ccc1C,inactive: 1.2%
20,O=C(Nc1ccccc1C(=O)N1CCCCC1)c1cccc(S(=O)(=O)N2CCOCC2)c1,inactive: 0.9%
21,COc1ccc(Oc2cn[nH]c2-c2ccc(O)cc2O)cc1,inactive: -0.2%
22,Cc1cc2nc(N)sc2cc1C,inactive: 0.1%
23,COC(C(=O)Nc1cccc(F)c1)c1ccccc1 (stereo not given),inactive: -3.4%
24,Cc1cc(C(=O)CSc2nc3ccc(Cl)cc3[nH]2)c(C)n1CC1CCCO1 (stereo not given),inactive: 1.6%
25,Cc1ccc(SCC(=O)Nc2cccnc2)cc1,inactive: -2.2%

# Structural class, those above containing an aryl methoxy group.
row,SMILES,inhibition
5,COc1ccc(N(C(=O)c2ccc(Cl)cc2)C2=CC3CCC(C2)N3C)cc1 (stereo not given),inactive: 0.4%
6,COc1ccc(CCC(=O)Nc2nc3ccccc3[nH]2)cc1OC,inactive: -1.5%
11,COc1ccc(Oc2nccc(-c3ccccc3)c2C#N)cc1,inactive: 0.4%
12,COc1ccc2c(c1)-c1nc(NC(=O)c3cccs3)sc1CC2,inactive: -4.8%
23,COc1ccc(Cc2c(N)nc(N)nc2N)cc1,inactive: 3.1%
25,COc1ccccc1-c1nc(C(N)=O)c2[nH]c(=O)n(-c3cccc(C)c3)c2n1,inactive: -0.5%
21,COc1ccc(Oc2cn[nH]c2-c2ccc(O)cc2O)cc1,inactive: -0.2%

# Some of the entries so far, with bars between the fields.
row | SMILES | inhibition
5 | O=C(c1ccc(-c2ccccc2)cc1)N1CCN(C(=O)c2ccco2)CC1 | inactive: 0.7%
6 | O=C(Nc1ccncc1)c1cc(F)cc(F)c1 | inactive: -2.6%

# Further records

row,SMILES,inhibition
1,COc1cc(OC)cc(C(=O)Nc2nc3ccccc3[nH]2)c1,inactive: -1%
2,CCN1CCCC1CN(Cc1cc2ccc(C)c(C)c2[nH]c1=O)C(=O)Nc1ccccc1OC (stereo not given),inactive: 0.9%
3,CCN(CC)C(=O)CSc1nc2ccccc2c(=O)n1OC,inactive: 0.3%
4,O=c1[nH]c2cc3c(cc2cc1CN(Cc1cccs1)Cc1nnnn1Cc1ccco1)OCCO3,inactive: -3.2%
5,CCC(C)N=CC1=C(O)CC(c2ccccc2)CC1=O (stereo not given),inactive: -2.1%
6,Cc1ccc(C(C#N)c2ccc(C(=O)c3ccc(F)cc3)cc2)cc1 (stereo not given),inactive: -1.9%
7,CCOc1ccc(CN(CCO)CCO)cc1[N+](=O)[O-],inactive: -2.2%
8,COC(=O)c1cc2c(C)c(C)c3ccccn3c-2c1C(=O)OC,inactive: -1%
9,CC12C(=O)N(CCC(=O)O)C(=O)C1C1C=CC2C1 (stereo not given),inactive: -1%
10,Cc1ccc(-c2nc(N)c3c(-c4ccc(C)cc4)nn(C(C)(C)C)c3n2)cc1,inactive: 0%
11,CC(=O)c1c(N2CCCCC2)nc(=S)n(-c2ccccc2)c1C,inactive: -4%
12,COC(=O)c1ccccc1NC(=O)CN1CCC(n2nnc3cc(C(F)(F)F)ccc32)CC1,inactive: -1.3%
13,O=C(O)c1c[nH]c(=S)n1-c1ccc(F)cc1,inactive: 1.2%
14,CC(SCc1cn2cc(Cl)ccc2n1)C(=O)O (stereo not given),inactive: -0.7%
15,O=C(COC(=O)c1cc(-c2cccs2)nc2ccccc12)NCc1ccco1,inactive: 13.2%
16,COC(=O)c1ccc(N2C(=O)CC(N(C)CCc3ccc(OC)c(OC)c3)C2=O)cc1 (stereo not given),active: 66%
17,O=S(=O)(NCc1cn2ccccc2n1)c1cc(F)ccc1F,inactive: 0.7%
18,Cn1ccnc1SCc1cn2ccccc2n1,inactive: 13%
19,CCOc1cc(/C=C2\C(=O)N(c3ccc(C(N)=O)cc3)N=C2C)ccc1OC(=O)c1cccs1,inactive: -0.1%
20,Cn1c(C(N)=O)cnc1Sc1ncc(C(F)(F)F)cc1Cl,inactive: -2.7%
21,C=CCn1c(SCc2nc3ccccc3c(=O)[nH]2)nnc1-c1cc2cc(Cl)ccc2o1,inactive: 6.9%
22,O=C(NCc1ccccc1)N1CCN(c2ccc(Cl)c(Cl)c2)CC1,inactive: -0.9%
23,CNC(=O)c1sc(-c2ccc(Cl)cc2)nc1C,inactive: -2.2%
24,COC(=O)c1ccccc1NC(=S)NC(=O)COc1ccc(C)cc1,inactive: -0.7%
25,COCCNc1nc2ccccc2nc1NS(=O)(=O)c1ccc(C)cc1C,inactive: 2.3%

row,SMILES,inhibition
1,Cc1ccc(C)c2[nH]c(=O)c(CN(Cc3ccco3)C(=O)Nc3ccccc3)cc12,inactive: -1.3%
2,O=C(NCc1ccc2c(c1)OCO2)c1cccc(F)c1,inactive: 6.2%
3,Cc1csc(NC(=O)c2ccco2)n1,inactive: -0.3%
4,CO/N=C/C(=N\Nc1ccc(OC)cc1)C(=O)c1ccc(OC)cc1,inactive: 0.7%
5,O=C(COC(=O)c1ccco1)Nc1cccc(Br)c1,inactive: -0.1%
6,O=C1c2ccccc2N2C(=O)c3ccccc3C2N1O (stereo not given),inactive: 2.3%
7,CCOCCCN(C(=O)c1ccco1)C(C(=O)NC1CCCC1)c1cccc(OC)c1OC (stereo not given),inactive: 0.9%
8,Cc1cc(C(F)(F)F)nn1CC(=O)N(C)C1CCCCC1,inactive: 2.4%
9,COc1ccc(-c2cc(C(F)(F)F)nc(SCCC(=O)NCc3ccccc3)n2)cc1,inactive: 0.1%
10,O=C1CC(N2CCN(C3CCc4ccccc4C3)CC2)C(=O)N1c1ccccc1 (stereo not given),inactive: -0.7%
11,CN(C)c1ccc(C(=O)c2ccc(N(C)C)c3ccccc23)cc1,inactive: 1.7%
12,Fc1cc2nc(-c3ccncc3)[nH]c2cc1F,inactive: -0.1%
13,Cc1ccc(C2CCN(C(=O)Nc3ccccc3)C2)cc1 (stereo not given),inactive: 0.1%
14,Cc1nc2nc(CSc3ccc(Cl)cc3)cc(=O)n2[nH]1,inactive: -1.3%
15,CNS(=O)(=O)c1cccc2cccnc12,inactive: -1.9%
16,CCn1cc(/C=N/NC(=O)c2cc3c(ccc4ccccc43)o2)c2ccccc21,inactive: -2.8%
17,Cc1ccc2cc(CN(Cc3ccco3)C(=O)C3CCCCC3)c(=O)[nH]c2c1C,inactive: -4.3%
18,Cc1ccc(-c2csc(-c3c[nH]c4ccccc34)n2)cc1,inactive: -2.9%
19,O=C(NCc1ccco1)c1nn2c(C(F)(F)F)cc(-c3cccs3)nc2c1Br,inactive: 3.5%
20,CCN(CC)CCNC(=O)C12CC3CC(CC(C3)C1)C2,inactive: -1.1%
21,O=C(/C=C/c1ccccc1)N1CCN(CC(O)COc2ccccc2)CC1 (stereo not given),inactive: -0.8%
22,C=CCON1C(=O)c2ccccc2C1=O,inactive: -0.2%
23,O=C(Nc1ccc(N2CCCCC2)c(Cl)c1)c1ncn[nH]1,inactive: -2.9%
24,CCOc1cccc(NC(=O)Cc2cccs2)c1,inactive: -0.5%
25,CCC(C)(C)NC(=O)C(c1ccccc1)N(Cc1cccs1)C(=O)Cn1nnc2ccccc21 (stereo not given),inactive: 1.5%
